Assay results published in patent US7750148B2, “Intermediate compound for the production of β-lactamase-resistant cephalosporin ester compounds and salts thereof” (Zhejiang Yongning Pharmaceutical Factory, priority 2003, dated 2010).
Some of these results come from one statement about several compounds together.

Assay: Mouse maximum tolerable dose experiment (acute toxicity)
Type: in vivo
Settings: Kunming mice, intragastric administration, once
Experimental: tested samples (YR-1, YR-2) are the same as above.
Strain: Kunming mice; source: Animal Facility of Shanghai Institute of Pharmaceutical Industry; certificate number: Hudonghezhengzi No. 107; animal numbers: 20; Sex: same number of male and female mice; Body weight: 18-21 g; fast time: 16 hours.
Preparation of samples: 5 g/kg (prepared with 5% carboxymethyl cellulose CMC); volume accepted: 0.6 ml/20 g body weight/each time; administration times: once; dosage: 5 g/kg/24 hr
Intragastric Administration
20 mice, 10 male and 10 female, were given YR-1 or YR-2 via intragastric administration, observed manifestation of mice toxic symptom immediately after administration, recorded mice death number.
Observed manifestation of mice toxic symptom immediately after administration, observed twice each day (morning and evening).
Toxic reaction: recorded behaviors of mice, skin, respiration, urination and defecation, appetite, checked if there are abnormal secretions appeared in the nose, eye and mouth.
Observation period: 7 days, killed all the surviving mice after observation period, and autopsied to see if there is any abnormality existed in the mice organs.

5-thia-1-aza-bicyclo [4,2,0] octane-2-ene-2-carboxylic acid, 7-[[(2-amino-4-thiazolyl) (methoxy imine) acetyl]amino]-3-methyl-8-oxo-, [[3,3-dimethyl-4,4-dioxy-7-oxo-4-thia-1-aza-bicyclo [3,2,0] heptane-2-group]carbonyloxy]oxy]methyl ester [YR-1]
LD50: > 5000 mg/kg
